# Measured values reported in article PMC8384837.
# Substitutions are numbered along the chain they refer to. This is one part of the list. For some of these results: At the low end of the ranking, values are background and their order means little.
# Columns and labels:
# Conditions in all cases: yeast three-hybrid, YBZ-1, SC-Leu-His + 0.5 mM 3-AT, 4 days
# [1] = biological target: T1, PUM1 PUF domain R4-SML N971S + H972M + Q975L (Homo sapiens) (UniProt Q14671)
# T1 sequence: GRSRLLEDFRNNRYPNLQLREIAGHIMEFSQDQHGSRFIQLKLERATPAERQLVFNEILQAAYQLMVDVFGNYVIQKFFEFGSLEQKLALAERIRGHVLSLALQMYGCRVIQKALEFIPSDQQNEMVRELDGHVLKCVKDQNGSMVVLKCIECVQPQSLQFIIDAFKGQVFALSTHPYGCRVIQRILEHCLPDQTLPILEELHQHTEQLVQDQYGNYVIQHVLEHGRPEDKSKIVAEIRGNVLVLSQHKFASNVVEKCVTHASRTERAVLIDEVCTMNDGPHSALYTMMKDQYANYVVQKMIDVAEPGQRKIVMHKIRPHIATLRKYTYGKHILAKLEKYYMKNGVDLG
# [2] = biological target: T2, PUM1 PUF domain R4-SMR N971S + H972M + Q975R (Homo sapiens) (UniProt Q14671)
# T2 sequence: T1 sequence with L148R
# [3] = biological target: T3, PUM1 PUF domain R4-SMS N971S + H972M + Q975S (Homo sapiens) (UniProt Q14671)
# T3 sequence: T1 sequence with L148S
# [4] = biological target: T4, PUM1 PUF domain R4-SMT N971S + H972M + Q975T (UniProt Q14671)
# T4 sequence: T1 sequence with L148T
# [5] = biological target: T5, PUM1 PUF domain R4-SMV N971S + H972M + Q975V (Homo sapiens) (UniProt Q14671)
# T5 sequence: T1 sequence with L148V
# [6] = biological target: T6, PUM1 PUF domain R4-SNA N971S + H972N + Q975A (UniProt Q14671)
# T6 sequence: T1 sequence with M145N, L148A
# [7] = biological target: T7, PUM1 PUF domain R4-SNC N971S + H972N + Q975C (UniProt Q14671)
# T7 sequence: T1 sequence with M145N, L148C
# [8] = biological target: T8, PUM1 PUF domain R4-SNF N971S + H972N + Q975F (UniProt Q14671)
# T8 sequence: T1 sequence with M145N, L148F
# [9] = biological target: T9, PUM1 PUF domain R4-SNG N971S + H972N + Q975G (UniProt Q14671)
# T9 sequence: T1 sequence with M145N, L148G
# [10] = biological target: T10, PUM1 PUF domain R4-SNL N971S + H972N + Q975L (UniProt Q14671)
# T10 sequence: T1 sequence with M145N
# [11] = biological target: T11, PUM1 PUF domain R4-SNQ N971S + H972N (UniProt Q14671)
# T11 sequence: T1 sequence with M145N, L148Q
# [12] = biological target: T12, PUM1 PUF domain R4-SNR N971S + H972N + Q975R (UniProt Q14671)
# T12 sequence: T1 sequence with M145N, L148R
# [13] = biological target: T13, PUM1 PUF domain R4-SNS N971S + H972N + Q975S (UniProt Q14671)
# T13 sequence: T1 sequence with M145N, L148S
# [14] = biological target: T14, PUM1 PUF domain R4-SNV N971S + H972N + Q975V (UniProt Q14671)
# T14 sequence: T1 sequence with M145N, L148V
# [15] = biological target: T15, PUM1 PUF domain R4-SPA N971S + H972P + Q975A (UniProt Q14671)
# T15 sequence: T1 sequence with M145P, L148A
# [16] = biological target: T16, PUM1 PUF domain R4-SPC N971S + H972P + Q975C (Homo sapiens) (UniProt Q14671)
# T16 sequence: T1 sequence with M145P, L148C
# [17] = biological target: T17, PUM1 PUF domain R4-SPG N971S + H972P + Q975G (UniProt Q14671)
# T17 sequence: T1 sequence with M145P, L148G
# [18] = biological target: T18, PUM1 PUF domain R4-SPL N971S + H972P + Q975L (UniProt Q14671)
# T18 sequence: T1 sequence with M145P
# [19] = biological target: T19, PUM1 PUF domain R4-SPR N971S + H972P + Q975R (UniProt Q14671)
# T19 sequence: T1 sequence with M145P, L148R
# [20] = biological target: T20, PUM1 PUF domain R4-SPS N971S + H972P + Q975S (UniProt Q14671)
# T20 sequence: T1 sequence with M145P, L148S
# [21] = biological target: T21, PUM1 PUF domain R4-SPT N971S + H972P + Q975T (UniProt Q14671)
# T21 sequence: T1 sequence with M145P, L148T
# [22] = biological target: T22, PUM1 PUF domain R4-SPV N971S + H972P + Q975V (UniProt Q14671)
# T22 sequence: T1 sequence with M145P, L148V
# [23] = biological target: T23, PUM1 PUF domain R4-SPW N971S + H972P + Q975W (UniProt Q14671)
# T23 sequence: T1 sequence with M145P, L148W
# [24] = biological target: T24, PUM1 PUF domain R4-SQR N971S + H972Q + Q975R (UniProt Q14671)
# T24 sequence: T1 sequence with M145Q, L148R
# [25] = biological target: T25, PUM1 PUF domain R4-SQS N971S + H972Q + Q975S (UniProt Q14671)
# T25 sequence: T1 sequence with M145Q, L148S
# [26] = biological target: T26, PUM1 PUF domain R4-SRA N971S + H972R + Q975A (Homo sapiens) (UniProt Q14671)
# T26 sequence: T1 sequence with M145R, L148A
# [27] = biological target: T27, PUM1 PUF domain R4-SRC N971S + H972R + Q975C (UniProt Q14671)
# T27 sequence: T1 sequence with M145R, L148C
# [28] = biological target: T28, PUM1 PUF domain R4-SRG N971S + H972R + Q975G (Homo sapiens) (UniProt Q14671)
# T28 sequence: T1 sequence with M145R, L148G
# [29] = biological target: T29, PUM1 PUF domain R4-SRI N971S + H972R + Q975I (UniProt Q14671)
# T29 sequence: T1 sequence with M145R, L148I
# [30] = biological target: T30, PUM1 PUF domain R4-SRL N971S + H972R + Q975L (Homo sapiens) (UniProt Q14671)
# T30 sequence: T1 sequence with M145R
# [31] = biological target: T31, PUM1 PUF domain R4-SRM N971S + H972R + Q975M (UniProt Q14671)
# T31 sequence: T1 sequence with M145R, L148M
# [32] = biological target: T32, PUM1 PUF domain R4-SRR N971S + H972R + Q975R (Homo sapiens) (UniProt Q14671)
# T32 sequence: T1 sequence with M145R, L148R
# [33] = biological target: T33, PUM1 PUF domain R4-SRS N971S + H972R + Q975S (UniProt Q14671)
# T33 sequence: T1 sequence with M145R, L148S
# [34] = biological target: T34, PUM1 PUF domain R4-SRV N971S + H972R + Q975V (Homo sapiens) (UniProt Q14671)
# T34 sequence: T1 sequence with M145R, L148V
# [35] = biological target: T35, PUM1 PUF domain R4-SRW N971S + H972R + Q975W (UniProt Q14671)
# T35 sequence: T1 sequence with M145R, L148W
# [36] = biological target: T36, PUM1 PUF domain R4-SRY N971S + H972R + Q975Y (UniProt Q14671)
# T36 sequence: T1 sequence with M145R, L148Y
# [37] = biological target: T37, PUM1 PUF domain R4-SWG N971S + H972W + Q975G (UniProt Q14671)
# T37 sequence: T1 sequence with M145W, L148G
sequence,measurement,setting,value
GGCUAGAACUAGUGGAUCCCCCGGCGCCCGGCGGCUCGAGCCCGGGUAAGUGUAGAUAGUCUGCAUGCCGCCGGGCGCCAUGCCUGCAGGUCGACUCUAGAAAACAUG,binding signal (log2 enrichment (interaction score)),[1],-4.44
same,binding signal (log2 enrichment (interaction score)),[2],-5.06
same,binding signal (log2 enrichment (interaction score)),[3],-2.63
same,binding signal (log2 enrichment (interaction score)),[4],< -7.16
same,binding signal (log2 enrichment (interaction score)),[5],-3.91
same,binding signal (log2 enrichment (interaction score)),[6],< -7.35
same,binding signal (log2 enrichment (interaction score)),[7],< -7.43
same,binding signal (log2 enrichment (interaction score)),[8],< -6.17
same,binding signal (log2 enrichment (interaction score)),[9],< -7.76
same,binding signal (log2 enrichment (interaction score)),[10],< -6.68
same,binding signal (log2 enrichment (interaction score)),[11],< -5.15
same,binding signal (log2 enrichment (interaction score)),[12],< -7.47
same,binding signal (log2 enrichment (interaction score)),[13],< -7.37
same,binding signal (log2 enrichment (interaction score)),[14],< -6.71
same,binding signal (log2 enrichment (interaction score)),[15],< -5.42
same,binding signal (log2 enrichment (interaction score)),[16],-1.68
same,binding signal (log2 enrichment (interaction score)),[17],< -8.75
same,binding signal (log2 enrichment (interaction score)),[18],< -8.07
same,binding signal (log2 enrichment (interaction score)),[19],< -7.65
same,binding signal (log2 enrichment (interaction score)),[20],< -6.96
same,binding signal (log2 enrichment (interaction score)),[21],< -7.61
same,binding signal (log2 enrichment (interaction score)),[22],< -7.68
same,binding signal (log2 enrichment (interaction score)),[23],< -8.13
same,binding signal (log2 enrichment (interaction score)),[24],< -8.02
same,binding signal (log2 enrichment (interaction score)),[25],< -6.54
same,binding signal (log2 enrichment (interaction score)),[26],-4.91
same,binding signal (log2 enrichment (interaction score)),[27],< -5.86
same,binding signal (log2 enrichment (interaction score)),[28],-3.78
same,binding signal (log2 enrichment (interaction score)),[29],< -6.38
same,binding signal (log2 enrichment (interaction score)),[30],-0.32
same,binding signal (log2 enrichment (interaction score)),[31],< -7.57
same,binding signal (log2 enrichment (interaction score)),[32],-6
same,binding signal (log2 enrichment (interaction score)),[33],< -6.89
same,binding signal (log2 enrichment (interaction score)),[34],-0.65
same,binding signal (log2 enrichment (interaction score)),[35],< -7.76
same,binding signal (log2 enrichment (interaction score)),[36],< -7.39
same,binding signal (log2 enrichment (interaction score)),[37],< -5.07

# Reprinted at random: two records from the list
sequence,measurement,setting,value
GGCUAGAACUAGUGGAUCCCCCGGCGCCCGGCGGCUCGAGCCCGGGUAAGUGUAGAUAGUCUGCAUGCCGCCGGGCGCCAUGCCUGCAGGUCGACUCUAGAAAACAUG,binding signal (log2 enrichment (interaction score)),[12],< -7.47
same,binding signal (log2 enrichment (interaction score)),[20],< -6.96
